# Screening data, single-dose tests

Sequences of proteins named here, by UniProt entry; tags and fusion partners are left off. Residues count along the entry.
UniProt Q8IDJ8, 1-583: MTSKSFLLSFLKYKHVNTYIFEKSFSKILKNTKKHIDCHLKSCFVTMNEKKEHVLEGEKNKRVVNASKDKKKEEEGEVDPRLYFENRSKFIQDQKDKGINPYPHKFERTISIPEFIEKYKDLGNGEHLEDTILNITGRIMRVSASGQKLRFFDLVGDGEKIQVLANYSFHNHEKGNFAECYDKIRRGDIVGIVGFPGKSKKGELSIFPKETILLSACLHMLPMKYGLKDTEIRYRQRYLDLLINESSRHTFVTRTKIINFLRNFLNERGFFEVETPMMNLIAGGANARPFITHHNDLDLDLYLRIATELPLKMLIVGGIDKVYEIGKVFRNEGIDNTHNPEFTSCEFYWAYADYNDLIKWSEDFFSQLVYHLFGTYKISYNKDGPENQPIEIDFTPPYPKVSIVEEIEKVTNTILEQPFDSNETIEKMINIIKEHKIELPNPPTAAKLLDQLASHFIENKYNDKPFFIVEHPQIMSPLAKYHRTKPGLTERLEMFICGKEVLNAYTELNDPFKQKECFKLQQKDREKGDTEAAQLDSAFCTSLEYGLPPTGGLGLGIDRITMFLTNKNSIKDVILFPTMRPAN
UniProt Q4DA54, 1-478: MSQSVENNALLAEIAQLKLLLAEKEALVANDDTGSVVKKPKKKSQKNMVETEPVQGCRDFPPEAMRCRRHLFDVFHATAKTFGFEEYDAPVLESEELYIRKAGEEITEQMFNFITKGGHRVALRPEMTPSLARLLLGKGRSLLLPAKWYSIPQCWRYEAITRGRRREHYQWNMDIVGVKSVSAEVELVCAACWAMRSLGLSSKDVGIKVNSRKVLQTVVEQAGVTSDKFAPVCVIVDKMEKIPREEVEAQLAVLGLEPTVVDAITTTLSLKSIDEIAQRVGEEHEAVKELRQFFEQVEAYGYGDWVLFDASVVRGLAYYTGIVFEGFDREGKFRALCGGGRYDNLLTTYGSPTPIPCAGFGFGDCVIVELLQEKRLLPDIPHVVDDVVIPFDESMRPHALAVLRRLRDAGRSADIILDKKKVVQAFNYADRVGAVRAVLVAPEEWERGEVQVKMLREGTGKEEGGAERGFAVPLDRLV

The values are deposited in ChEMBL (CHEMBL3988442, “University of Dundee, Small-Polar-MMV Screening Library” (2021)).

Results are given as percent effect.
The controls that fix the scale are not given in the record; negative values are as filed.
Compounds were drawn at random from those tested, without regard to their results.

Leishmania in macrophages: 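Cell assay of Leishmania donovani living inside macrophages; the read-out is not stated. Compounds at 30 µM. Direction is inferred from retests: higher values go with stronger inhibition. Size under these conditions: about 69,000 compounds, about 1,000 of them at 50% or above in at least one test.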
T. brucei: 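Whole-parasite assay of Trypanosoma brucei over 72 hours; the read-out is not stated. Tested at 30 µM. Direction is inferred from retests: higher values go with stronger inhibition. Values scatter widely below zero; nearly all retest evidence comes from the higher of the two concentrations used. Size under these conditions: about 64,000 compounds, about 940 of them at 50% or above in at least one test.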
Toxoplasma: 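Assay of Toxoplasma gondii numbers, read through their beta-galactosidase reporter with a colour substrate. Tested at 10 µM. Higher reads as fewer parasites (inferred from which compounds were picked for retests). Size under these conditions: about 67,000 compounds, about 260 of them at 50% or above in at least one test.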
PfKRS1: 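Enzyme assay of the cytosolic lysyl-tRNA synthetase in 384-well plates, read by luminescence. Target: Lysine-tRNA ligase, Plasmodium falciparum 3D7 (UniProt Q8IDJ8). Concentration: 30 µM. Direction is inferred from only a few compounds that gave an IC50; most scored high, so higher reads as stronger inhibition. Size under these conditions: about 69,000 compounds, about 49 of them at 50% or above in at least one test.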
TcHisRS: 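Histidine-tRNA ligase, Trypanosoma cruzi CL Brener (UniProt Q4DA54). Enzyme assay of histidyl-tRNA synthetase; the read-out is not stated. Tested at 30 µM. Direction is inferred from retests: higher values go with stronger inhibition. Of about 69,000 compounds tested this way, about 31 (0.045%) reached 50% or more in at least one test.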

- Cc1ccc(-c2nc(CN(Cc3cccs3)C3CCS(=O)(=O)C3)cs2)o1 (configuration not stated) : Leishmania in macrophages: -3.868%; T. brucei: -8.184%; Toxoplasma: 1.2%; PfKRS1: 2.958%; TcHisRS: 0.8403%
- CC(=O)N1CCC2(CC1)CC(N1CCOCC1)c1ccc(C)cc12.O=C(O)C(F)(F)F (configuration not stated) : Leishmania in macrophages: 29.16%; T. brucei: 4.826%; Toxoplasma: -3.744%
- Cc1cc(F)c2c(c1)CCCN2Cc1nc2c(cnn2C)c(=O)[nH]1 : Leishmania in macrophages: 25.07%; T. brucei: -64.78%; Toxoplasma: 0.649%; PfKRS1: 2.8%; TcHisRS: 3.896%
- Cc1ccc(C)n1-c1ccc(C(=O)NCCNc2ncccn2)cc1 : Leishmania in macrophages: 32.75%; T. brucei: 47.8%; Toxoplasma: 2.95%; PfKRS1: -2.178%; TcHisRS: 2.273%
- O=C(c1cccc(O)c1)N1CCC2(CCN2c2ncccn2)C1 (configuration not stated) : PfKRS1: 0.3327%; TcHisRS: 7.035%
- CC(C)C(CCO)NC(=O)Nc1ccc(-c2csnn2)cc1 (configuration not stated) : Leishmania in macrophages: -22.9%; T. brucei: -83.2%; Toxoplasma: -6.678%; PfKRS1: 8.133%; TcHisRS: 3.571%
- CC(NC(=O)NCCCN1CCc2ccccc2C1)c1nncn1C (configuration not stated) : Leishmania in macrophages: -13.03%; T. brucei: -26.72%; Toxoplasma: 21.67%; PfKRS1: -1.041%; TcHisRS: 0%
- CN(C)CCn1c2c(ccc1=O)CC(NC(=O)c1ccsc1)CC2 (configuration not stated) : PfKRS1: 0.831%; TcHisRS: 5.556%
- Cc1ncsc1C(=O)N1CCC(c2ccc3c(NC(C)C)n[nH]c3n2)C1 (configuration not stated) : Leishmania in macrophages: -13.89%; T. brucei: 5.843%; Toxoplasma: 14.45%; PfKRS1: -0.82%; TcHisRS: 4.981%
- COc1ccc(-c2csc3c2c(N)nc(=O)n3CCN(C)C)cc1 : Leishmania in macrophages: -10.86%; T. brucei: -19.5%; Toxoplasma: -9.722%; PfKRS1: 1.406%; TcHisRS: 0.5848%
- Fc1cnc(N2CCC3(CC2)CN(Cc2ccccn2)CCO3)nc1 : PfKRS1: 4.48%; TcHisRS: 5.376%
- CCCc1nc(CN(CC)C(=O)c2ccc3ncsc3c2)no1 : Leishmania in macrophages: -29.17%; T. brucei: -10.06%; Toxoplasma: -2.862%; PfKRS1: 0.7493%; TcHisRS: 7.143%
- O=C(Nc1ccc2c(c1)OCO2)N1CCCC1c1ccco1 (configuration not stated) : Leishmania in macrophages: 9.212%; T. brucei: -40.35%; Toxoplasma: -21.97%; PfKRS1: 3.949%; TcHisRS: 3.488%
- FC(F)(F)C1CCCn2c(CNCc3ccco3)nnc21 (configuration not stated) : Leishmania in macrophages: -48.56%; T. brucei: -6.176%; PfKRS1: -0.441%; TcHisRS: 19.54%
- O=C(O)C(F)(F)F.O=C(O)C(F)(F)F.O=C(O)C(F)(F)F.c1cncc(OCc2n[nH]c3c2CN(Cc2cccs2)C3)c1 : Leishmania in macrophages: -16.17%; T. brucei: -49.85%; Toxoplasma: -10.23%
- O=C(O)C(F)(F)F.O=C(O)C(F)(F)F.[H][C@@]12COC[C@]1(COc1ncccc1F)CN(c1cc(OC)ncn1)C2 : Leishmania in macrophages: 36.23%; T. brucei: 51.8%; Toxoplasma: 10.88%
- Cc1cnc(-c2nc(O)c3c(n2)CN(C(=O)C2CCCO2)CC3)cn1 (configuration not stated) : Leishmania in macrophages: 25.75%; Toxoplasma: 3.424%; PfKRS1: 0.01526%; TcHisRS: 4.135%
- CC(C)n1c(=O)nc2n1C(=O)N(c1ccccc1)C2 : Leishmania in macrophages: 18.27%; T. brucei: 14.82%; Toxoplasma: 3.369%; PfKRS1: 1.753%; TcHisRS: 0%

Some entries from above, unchanged:

{"compound": "CCCc1nc(CN(CC)C(=O)c2ccc3ncsc3c2)no1", "Leishmania in macrophages": -29.17, "T. brucei": -10.06, "Toxoplasma": -2.862, "PfKRS1": 0.7493, "TcHisRS": 7.143}
{"compound": "O=C(Nc1ccc2c(c1)OCO2)N1CCCC1c1ccco1", "stereo": "configuration not stated", "Leishmania in macrophages": 9.212, "T. brucei": -40.35, "Toxoplasma": -21.97, "PfKRS1": 3.949, "TcHisRS": 3.488}